Data published in patent publication US20030059419A1.
No constants are given. Whether binding was seen depends on the method and setting. Binding seen in cells or lysates may run through a third protein. Some binding calls cover weakened binding; strength is not graded here. Tags and fused reporters may be left off the sequences shown.

How the values were obtained:
[1] = target: T1, Myc-I-TRAF (human I-TRAF, full length, with a Myc epitope added to the N-terminal) (human) (UniProt Q92844); assay: co-immunoprecipitation and western blot from transfected cells
T1 sequence (looked up): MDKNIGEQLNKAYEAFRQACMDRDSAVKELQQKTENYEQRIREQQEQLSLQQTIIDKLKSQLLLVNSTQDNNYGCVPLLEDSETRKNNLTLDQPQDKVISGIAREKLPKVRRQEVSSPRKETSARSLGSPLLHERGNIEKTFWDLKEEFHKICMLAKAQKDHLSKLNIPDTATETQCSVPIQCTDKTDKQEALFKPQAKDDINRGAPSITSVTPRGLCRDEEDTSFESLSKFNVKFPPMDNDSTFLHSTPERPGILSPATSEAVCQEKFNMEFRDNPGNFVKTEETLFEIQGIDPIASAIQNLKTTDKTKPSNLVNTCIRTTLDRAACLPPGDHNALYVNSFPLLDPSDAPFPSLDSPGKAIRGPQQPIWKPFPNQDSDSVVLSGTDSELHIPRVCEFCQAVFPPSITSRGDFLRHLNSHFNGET

[2] = target: T1, Myc-I-TRAF (human I-TRAF, full length, with a Myc epitope added to the N-terminal) (human); assay: summary of the yeast two hybrid and co-immunoprecipitation experiments
[3] = target: T1, Myc-I-TRAF (human I-TRAF, full length, with a Myc epitope added to the N-terminal) (human); assay: co-immunoprecipitation from COS-7 cells (anti-Myc or anti-Flag IP, anti-Flag or anti-Myc western blot)

Measured: binding

B1: Flag-IKK-i (human IKK-i with a Flag epitope linked to the N-terminal) (enzyme, not shown: small tags and cut ends)
chain: MQSTANYLWHTDDLLGQGATASVYKARNKKSGELVAVKVFNTTSYLRPREVQVREFEVLRKLNHQNIVKLFAVEETGGSRQKVLVMEYCSSGSLLSVLESPENAFGLPEDEFLVVLRCVVAGMNHLRENGIVHRDIKPGNIMRLVGEEGQSIYKLTDFGAARELDDDEKFVSVYGTEEYLHPDMYERAVLRKPQQKAFGVTVDLWSIGVTLYHAATGSLPFIPFGGPRRNKEIMYRITTEKPAGAIAGAQRRENGPLEWSYTLPITCQLSLGLQSQLVPILANILEVEQAKCWGFDQFFAETSDILQRVVVHVFSLSQAVLHHIYIHAHNTIAIFQEAVHKQTSVAPRHQEYLFEGHLCVLEPSVSAQHIAHTTASSPLTLFSTAIPKGLAFRDPALDVPKFVPKVDLQADYNTAKGVLGAGYQALRLARALLDGQELMFRGLHWVMEVLQATCRRTLEVARTSLLYLSSSLGTERFSSVAGTPEIQELKAAAELRSRLRTLAEVLSRCSQNITETQESLSSLNRELVKSRDQVHEDRSIQQIQCCLDKMNFIYKQFKKSRMRPGLGYNEEQIHKLDKVNFSHLAKRLLQVFQEECVQKYQASLVTHGKRMRVVHETRNHLRLVGCSVAACNTEAQGVQESLSKLLEELSHQLLQDRAKGAQASPPPIAPYPSPTRKDLLLHMQELCEGMKLLASDLLDNNRIIERLNRVPAPPDV
binds: all assays above
